According to patent US20120015352A1, “METHOD OF DETERMINING SENSITIVITY OF HUMAN OR NON-HUMAN ANIMAL CELLS TO AN IAP ANTAGONIST” (Otto-von-Guericke-Universitat Magdeburg, priority 2009, published 2012):
Results are given in words; binding and its absence hold for the method and conditions named. Some binding calls cover weakened binding; strength is not graded here.

By UniProt entry, the sequences of proteins in these tests, tags left out. Residues count along the entry.
UniProt P25445, residues 26-335: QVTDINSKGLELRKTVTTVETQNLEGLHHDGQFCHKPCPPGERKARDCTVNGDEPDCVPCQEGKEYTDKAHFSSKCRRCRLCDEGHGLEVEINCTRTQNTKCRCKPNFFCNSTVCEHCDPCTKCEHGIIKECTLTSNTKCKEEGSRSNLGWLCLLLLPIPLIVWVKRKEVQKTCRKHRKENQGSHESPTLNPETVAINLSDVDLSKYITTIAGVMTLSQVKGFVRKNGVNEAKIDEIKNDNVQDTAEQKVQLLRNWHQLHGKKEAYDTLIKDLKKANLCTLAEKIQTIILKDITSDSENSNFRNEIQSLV
UniProt P48023, residues 139-281: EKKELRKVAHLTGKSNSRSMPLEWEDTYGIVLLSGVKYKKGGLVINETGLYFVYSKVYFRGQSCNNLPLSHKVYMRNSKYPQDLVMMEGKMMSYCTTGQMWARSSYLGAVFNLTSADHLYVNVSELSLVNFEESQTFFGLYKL
UniProt Q13546, residues 325-671: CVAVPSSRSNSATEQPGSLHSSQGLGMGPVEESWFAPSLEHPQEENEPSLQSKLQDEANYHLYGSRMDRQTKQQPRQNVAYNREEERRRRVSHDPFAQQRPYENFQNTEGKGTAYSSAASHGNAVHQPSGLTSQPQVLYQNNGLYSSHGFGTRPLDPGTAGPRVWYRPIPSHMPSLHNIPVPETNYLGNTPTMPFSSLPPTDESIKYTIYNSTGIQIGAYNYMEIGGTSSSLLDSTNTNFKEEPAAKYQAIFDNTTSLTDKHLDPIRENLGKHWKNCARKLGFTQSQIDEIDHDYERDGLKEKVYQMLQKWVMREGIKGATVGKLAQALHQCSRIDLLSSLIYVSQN

Tests used:
CD95 (human) [1] = biological target: CD95 (human) (UniProt P25445); test: ligand affinity precipitation from HaCaT cells, Western blot for CD95
CD95 (human) [2] = biological target: CD95 (human) (UniProt P25445); test: ligand affinity precipitation from MET1 and A5-RT3 cells, Western blot for CD95
CD95 (human) [3] = biological target: CD95 (human) (UniProt P25445); test: CD95L-Fc ligand affinity precipitation of the DISC, Western blot (data not shown)

Row | Substance | binding (CD95 (human) [1]) | binding (CD95 (human) [2]) | binding (CD95 (human) [3])
1 | CD95L-Fc (from UniProt P48023 139-281) (Fc fusion) | binds | binds | 
2 | DD-containing fragment of RIP1 (from UniProt Q13546 325-671) |  |  | binds
